Entries after “also recorded” stand apart in the source; their conditions may differ.
Test: Safety after repeated oral administration over four weeks (Example 3)
Assay type: in vivo, cats
Conditions: oral once daily days 0 to 27, groups II (1 mg/kg) and III (3 mg/kg)
Method: The animals were allocated to 3 groups, 4 animals per group. […] The bottles with the test/control article looked identical with the exception of the animal no. in order to achieve blinding.
Blood samples for haematology and clinical chemistry were collected from the animals on days-1 (i.e. prior to the first treatment) and again on days 3, 7, 14, 28. Body weights were measured weekly and electrocardiography recording were made on days-1, 14, 21 and 28. A detailed physical examination including determination of rectal temperature and respiratory rate was carried out on days-1, 7, 14, 22 and 28. Systolic blood pressure (once daily) and heart rate (twice daily) were determined five days per week beginning prior to treatment until necropsy. The palatability of the administered article was assessed at various time points throughout treatment using a scoring system. On day 28 of the study, all animals were subjected to necropsy and stomach and kidneys were examined histopathologically. Relevant parameters were analysed using appropriate statistical procedures.

## CCCc1nc2c(C)cc(-c3nc4ccccc4n3C)cc2n1Cc1ccc(-c2ccccc2C(=O)O)cc1 [telmisartan, 4′-[2-n-propyl-4-methyl-6-(1-methylbenzimidazol-2-yl)-benzimidazol-1-ylmethyl]-biphenyl-2-carboxylic acid]
  palatability of the test article formulation: predominantly good or acceptable; also recorded: slightly impaired palatability

— US10357479B2, “Angiotensin II receptor antagonist for the prevention or treatment of systemic diseases in cats” (priority 2006, dated 2019)
